Results are given in words; binding and its absence hold for the method and conditions named. A result given as binding can be weak or reduced; the word gives no strength. Where a sequence is shown, tags or fusion partners need not be part of it. For part of these data: Binding seen in cells or lysates may run through a third protein.
Tests used:
[1] = target: T1, CELLULOSE SYNTHASE 3 fused to the C-terminal part of ubiquitin (Cub) and the URA3 reporter protein (split-ubiquitin bait) (Arabidopsis thaliana) (UniProt Q941L0); experiment: two-hybrid; yeast split-ubiquitin two-hybrid in S. cerevisiae JD53; bait CESA3-Cub-URA3, preys fused to NubG; growth on SC-HT medium with 1 mg/ml 5-FOA; 80 colonies of each combination spotted, 30°C, 3 d
T1 sequence: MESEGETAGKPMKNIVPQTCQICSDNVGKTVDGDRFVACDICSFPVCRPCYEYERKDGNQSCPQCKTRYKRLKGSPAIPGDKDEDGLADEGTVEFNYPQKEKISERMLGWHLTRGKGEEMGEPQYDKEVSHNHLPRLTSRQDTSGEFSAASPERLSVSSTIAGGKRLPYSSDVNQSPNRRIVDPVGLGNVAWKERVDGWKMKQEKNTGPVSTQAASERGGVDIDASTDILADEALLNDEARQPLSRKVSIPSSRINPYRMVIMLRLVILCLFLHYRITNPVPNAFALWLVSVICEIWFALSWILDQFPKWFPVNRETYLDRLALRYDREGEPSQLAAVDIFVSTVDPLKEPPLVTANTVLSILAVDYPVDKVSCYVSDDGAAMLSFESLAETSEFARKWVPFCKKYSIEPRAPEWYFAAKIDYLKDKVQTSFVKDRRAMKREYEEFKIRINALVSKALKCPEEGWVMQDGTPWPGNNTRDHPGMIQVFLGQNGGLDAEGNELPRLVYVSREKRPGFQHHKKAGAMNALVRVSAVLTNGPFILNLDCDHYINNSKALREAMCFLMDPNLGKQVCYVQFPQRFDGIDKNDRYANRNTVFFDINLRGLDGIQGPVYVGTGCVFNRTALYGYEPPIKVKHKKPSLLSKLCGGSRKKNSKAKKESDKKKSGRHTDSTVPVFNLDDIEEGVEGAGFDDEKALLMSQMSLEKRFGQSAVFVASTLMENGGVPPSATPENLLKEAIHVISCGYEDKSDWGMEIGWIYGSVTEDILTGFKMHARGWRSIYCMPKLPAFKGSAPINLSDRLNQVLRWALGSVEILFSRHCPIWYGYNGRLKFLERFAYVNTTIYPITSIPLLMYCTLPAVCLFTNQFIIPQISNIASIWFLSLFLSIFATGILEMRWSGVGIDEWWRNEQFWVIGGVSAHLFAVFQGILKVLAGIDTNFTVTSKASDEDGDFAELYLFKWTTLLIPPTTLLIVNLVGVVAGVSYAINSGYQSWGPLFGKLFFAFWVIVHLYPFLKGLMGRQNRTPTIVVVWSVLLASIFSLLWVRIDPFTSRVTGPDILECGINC

[2] = target: T2, YFP^N-CESA3 (the N-terminal half of YFP fused to the N-terminus of CESA3) (Arabidopsis thaliana) (UniProt Q941L0); experiment: split reporter; BiFC with the halves of YFP, co-expression in epidermal cells of Nicotiana benthamiana (tobacco) leaves, YFP fluorescence by confocal microscopy
T2 sequence: T1 sequence

| binding [1] | binding [2] | Substance |
| --- | --- | --- |
| binds | – | COMPANION OF CELLULOSE SYNTHASE 1 fused to the C-terminus of NubG (split-ubiquitin prey) |
| binds | – | TONNEAU1 (TON1) recruiting motif 4 fused to the C-terminus of NubG (split-ubiquitin prey) (Arabidopsis thaliana) |
| – | binds | YFP^C-TRM4 (the C-terminal half of YFP fused to the N-terminus of TRM4) (Arabidopsis thaliana) |

The remaining lines, values behind:

| Substance | binding [1] | binding [2] |
| --- | --- | --- |
| TRM26 fused to the C-terminus of NubG (split-ubiquitin prey) | no binding | – |
| YFP^C-CC1 | – | binds |
| YFP^C-TRM26 | – | no binding |
